Data as given in PubChem BioAssay AID1224830 (NIAID, 2016).
The deposit covers about 18,000 reagents; below is a random part of them. In the full data, about 2,900 (16%) are marked active. 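Calls are made per well; low scores hint the gene aids the LPS response, high scores that it dampens it.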 A number with no mark means an inactive call. Repeated entries: four replicate wells of each siRNA pool.

Assay: 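Regulators of TLR4 signalling towards TNF-alpha in macrophage-like cells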 (primary screen)
System: human THP-1 monocytic leukaemia cells, TNF dual-luciferase reporter clone, PMA-differentiated to macrophage-like cells
Knock-down reagent: siRNA pool against human genes, 50 nM
Time to read-out: LPS for 4 h, given about 3 days after siRNA transfection
Conditions: bacterial LPS (TLR4 ligand), 10 ng/ml
Measured: 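Ratio of firefly to renilla light, scaled to the plate median and expressed as a robust z-score per replicate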
Scale: TNF reporter robust z-score: higher = stronger TNF reporter response to LPS
Hit rule: 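a well is active when its z-score exceeds 2.8 or falls below -1.5; control wells carry no call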

After knock-down of ZNF202 the results were TNF reporter robust z-score -0.04. After knock-down of ZNF202 the results were TNF reporter robust z-score -0.19. Depletion of ZNF202 resulted in: TNF reporter robust z-score 0.05. For ZNF202, the values are TNF reporter robust z-score -0.54. Against FABP4 the deposit lists TNF reporter robust z-score 1.28. Knock-down of FABP4 came out at: TNF reporter robust z-score -0.38.

FABP4 gave TNF reporter robust z-score 0.07. After knock-down of FABP4, the record shows TNF reporter robust z-score -0.06. Depletion of ZKSCAN3 gave: TNF reporter robust z-score 1.19. For ZKSCAN3, the values are TNF reporter robust z-score 0.44. Knock-down of ZKSCAN3 resulted in: TNF reporter robust z-score 0.37. Depletion of ZKSCAN3 came out at: TNF reporter robust z-score 1.7.

With knock-down of RMI2, the record shows TNF reporter robust z-score -0.31. After knock-down of RMI2, the record shows TNF reporter robust z-score 0.04. Against RMI2, the entry reads TNF reporter robust z-score 0.02. After knock-down of RMI2, the screen gave TNF reporter robust z-score 0.24. Depletion of DLG4 resulted in: TNF reporter robust z-score -0.45. Knock-down of DLG4 resulted in: TNF reporter robust z-score 0.57.

Silencing of DLG4 came out at: TNF reporter robust z-score -0.33. Against DLG4, the values are TNF reporter robust z-score 0.21. Knock-down of ZNF219 resulted in: TNF reporter robust z-score -0.57. For ZNF219, the entry reads TNF reporter robust z-score 0.27. Silencing of ZNF219 came out at: TNF reporter robust z-score -0.2. ZNF219 scored TNF reporter robust z-score 0.95.

Silencing of TLCD5 came out at: TNF reporter robust z-score 0.75. Knock-down of TLCD5 resulted in: TNF reporter robust z-score 0.19. Knock-down of TLCD5 gave: TNF reporter robust z-score 0.5. With knock-down of TLCD5 the results were TNF reporter robust z-score -0.16. With knock-down of DPYSL3, the screen gave TNF reporter robust z-score 0.88. After knock-down of DPYSL3, the screen gave TNF reporter robust z-score 0.33.

DPYSL3 scored TNF reporter robust z-score -0.16. DPYSL3 showed TNF reporter robust z-score 2.06. Knock-down of NDUFB1 gave: TNF reporter robust z-score 1.88. With knock-down of NDUFB1, the record shows TNF reporter robust z-score 1.39. Silencing of NDUFB1 gave: TNF reporter robust z-score 1.96. With knock-down of NDUFB1, the record shows TNF reporter robust z-score 2.94 (active).

PPP1R7 showed TNF reporter robust z-score -0.13. With knock-down of PPP1R7 the results were TNF reporter robust z-score 0.58. After knock-down of PPP1R7, the record shows TNF reporter robust z-score -0.53. Silencing of PPP1R7 came out at: TNF reporter robust z-score 1.39. Silencing of SLCO2A1 resulted in: TNF reporter robust z-score 0. Depletion of SLCO2A1 resulted in: TNF reporter robust z-score 0.58.

For SLCO2A1, the values are TNF reporter robust z-score 0.64. Against SLCO2A1 the deposit lists TNF reporter robust z-score 0.6. EGLN2 showed TNF reporter robust z-score -0.56. EGLN2 gave TNF reporter robust z-score 0.29. Depletion of EGLN2 came out at: TNF reporter robust z-score 0.34.
